Test results from US20130143825A1, “COMPOUNDS FOR USE IN THE TREATMENT OF DISEASES BASED ON THE EXPRESSION OF TOXIC TRANSCRIPTS” (UNIVERSITAT DE VALENCIA, priority 2010, published 2013).
For some of these results: Part of at least one peptide drawing is inferred or uncertain, most often the ends. For some of these results: At least one structure is not confirmed: it was looked up by name or label, or the drawing left a doubt. Non-standard residues stand in square brackets, D forms with d. Residues, ends and D or L forms follow the SMILES beside them.

How the values were obtained:
[1] = system: 103Y-Gal4/+;UAS-CTG(480)/+ flies; experiment: Lethality phenotype in pupae caused by expression of 480 CTG under 103Y-Gal4 (females born); type: in vivo, Drosophila; conditions: for number of females, times greater than the control: dose-response assay
Method: The 120 vials that make up the chemical library were individually assayed on the lethality phenotype in pupae caused by the expression of 480 CTG under the control of 103Y-Gal4 at a concentration of 80 μM. […] Thus, for positions O1, O2, O3, O4, O5 and O6 of the hexapeptide, a total of six, three, six, four, two and seven active amino acids were obtained, respectively (FIG. 2A). In order to perform the deconvolution, 10 of these 28 amino acids were selected, on the basis of their degree of activity in the biological assay (FIG. 2A). Finally, of the possible combinations, 16 sequences were selected to perform the synthesis of the defined hexapeptides (FIG. 2B). The selection of these 16 peptides was based on redundancy criteria between the physical and chemical properties of active amino acids in similar positions.
At 250 μM, the activity of the peptide decreased, possibly due to a toxic effect of the peptide at higher concentrations.
In order to determine the contribution of each of the p10 residues to their activity on CTG(480), an alanine scanning experiment was performed. These experiments are based on substituting every amino acid of the peptide with alanine and keeping the rest. Alanine is a small amino acid and, in general, not very active; this is why it is used for this type of studies. Since each alanine substitution examines the contribution of an individual amino acid, this experiment makes it possible, on the one hand, to evaluate whether p10 is susceptible to optimisation (in the event that a substitution increases the efficacy of the molecule), or to determine which amino acids are important for its function (in the event that a substitution decreases the activity thereof). The sequence of p10 allows for 5 substitutions; for this reason, 5 new hexapeptides were synthesised which were assayed in relation to the lethality phenotype in 103Y-Gal4; UAS-CTG(480)/+ flies and commercial food.

[2] = system: MBNL1 binding to the CUG repeats; conditions: in vitro; cited from earlier work

Compound	Treated born/Control born ([1]; 80 μM, females born vs DMSO control, * p-value <0.05)	number of females, times greater than the control ([1]; 80 μM)	number of females, times greater than the control ([1]; 125 μM)	binding of MBNL1 to the CUG repeats [2]
C[C@@H](NC(=O)[C@@H](Cc1ccc(O)cc1)NC(=O)[C@H]1CCCN1C(=O)[C@H]1CCCN1)C(=O)N[C@H](Cc1c[nH]c2ccccc12)C(=O)N[C@H](CCC(=O)O)C(=O)O [p10] (H-[dP][dP][dY][dA][dW][dE]-OH)	4.0*	1.43 times	1.47 times	
CC[n+]1c(-c2ccccc2)c2cc(N)ccc2c2ccc(N)cc21 [ethidium bromide]				inhibited the binding of MBNL1
